Results are given in words; binding and its absence hold for the method and conditions named. For some of these results: Tags and fused reporters may be left off the sequences shown.
Tests used:
[1] = target: T1, Cy5-labeled histone H3 peptide; experiment: condition: MinElp3 15 g/l in twofold serial dilutions, peptide 10 nM; MST; MinElp3 (15 g/l) in twofold serial dilutions, Cy-labeled H3 peptide 10 nM; 25 °C; both purified
T1 sequence (peptide, Cyanine5 on the N-terminal amino group; C-terminal amide): YSTGGKAPRK

[2] = target: T2, Methanocaldococcus infernus Elp3, full length (Methanocaldococcus infernus) (UniProt D5VRB9); experiment: SEC; S200 gel filtration, 20 mM HEPES pH 7.5, 150 mM NaCl, 5 mM DTT; aerobic purification; masses of the monomeric forms confirmed by SDS-PAGE and light scattering (RALS and LALS); both purified
T2 sequence: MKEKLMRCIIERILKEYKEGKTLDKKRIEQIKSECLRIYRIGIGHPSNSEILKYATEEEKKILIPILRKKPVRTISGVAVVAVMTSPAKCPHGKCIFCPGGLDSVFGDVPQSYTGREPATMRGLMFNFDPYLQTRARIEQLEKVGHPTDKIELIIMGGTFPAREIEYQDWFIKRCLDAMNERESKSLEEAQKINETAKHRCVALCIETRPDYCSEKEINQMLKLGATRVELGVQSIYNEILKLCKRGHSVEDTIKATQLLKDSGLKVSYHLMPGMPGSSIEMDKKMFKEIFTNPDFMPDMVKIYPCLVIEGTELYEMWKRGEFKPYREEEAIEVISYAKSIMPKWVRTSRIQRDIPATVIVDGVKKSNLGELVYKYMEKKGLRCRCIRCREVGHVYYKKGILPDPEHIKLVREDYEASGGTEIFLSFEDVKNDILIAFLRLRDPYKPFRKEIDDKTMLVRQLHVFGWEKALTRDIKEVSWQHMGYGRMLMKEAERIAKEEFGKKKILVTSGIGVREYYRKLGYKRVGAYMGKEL

[3] = target: T2, Methanocaldococcus infernus Elp3, full length (Methanocaldococcus infernus); experiment: condition: 1.6 mM peptide in the syringe, 10–12 µM protein in the cell; ITC; MinElp3 (10–12 µM) in the cell, peptide in the syringe (2.47 mM, H3 1.6 mM); 20 mM HEPES pH 7.5, 150 mM NaCl, 1 mM β-mercaptoethanol; 25 °C; both purified
[4] = target: T2, Methanocaldococcus infernus Elp3, full length (Methanocaldococcus infernus); experiment: condition: 2.47 mM peptide in the syringe, 10–12 µM protein in the cell; ITC; MinElp3 (10–12 µM) in the cell, peptide in the syringe (2.47 mM, H3 1.6 mM); 20 mM HEPES pH 7.5, 150 mM NaCl, 1 mM β-mercaptoethanol; 25 °C; both purified

B1: Methanocaldococcus infernus Elp3, full length (enzyme, UniProt D5VRB9 1-534)
chain: T2 sequence
binding [1]: no binding | binding [2]: no binding

B2: histone H3 peptide H3(10–18) with an added N-terminal tyrosine (peptide)
peptide: YSTGGKAPRK
modifications: N-terminal acetylation; C-terminal amide
binding [3]: no binding

B3: alpha-tubulin peptide Tubulin(36–44) with an added N-terminal tyrosine (peptide)
peptide: YMPSDKTIGG
modifications: N-terminal acetylation; C-terminal amide
binding [4]: no binding
